Experimental data reported in article PMC5695612.

Key:
[1] = molecular target: FLAG-tagged TBSV p33 replication protein (tomato bushy stunt virus (TBSV)); experiment: co-IP; FLAG-affinity purification of the FLAG-tagged baits from the detergent-solubilised membrane fraction of yeast (for FLAG-GFP the soluble and membrane fractions). His6-Pgk1 was detected by Western blot with anti-His antibody. Also done at time points after shutting down p33 and p92^pol expression and adding cycloheximide.
[2] = molecular target: FLAG-tagged TBSV p92^pol replication protein (tomato bushy stunt virus (TBSV)); experiment: as above

B1: His6-tagged yeast cytosolic Pgk1 phosphoglycerate kinase (enzyme, UniProt P00560 1-416)
chain: MSLSSKLSVQDLDLKDKRVFIRVDFNVPLDGKKITSNQRIVAALPTIKYVLEHHPRYVVLASHLGRPNGERNEKYSLAPVAKELQSLLGKDVTFLNDCVGPEVEAAVKASAPGSVILLENLRYHIEEEGSRKVDGQKVKASKEDVQKFRHELSSLADVYINDAFGTAHRAHSSMVGFDLPQRAAGFLLEKELKYFGKALENPTRPFLAILGGAKVADKIQLIDNLLDKVDSIIIGGGMAFTFKKVLENTEIGDSIFDKAGAEIVPKLMEKAKAKGVEVVLPVDFIIADAFSADANTKTVTDKEGIPAGWQGLDNGPESRKLFAATVAKAKTIVWNGPPGVFEFEKFAAGTKALLDEVVKSSAAGNTVIIGGGDTATVAKKYGVTDKISHVSTGGGASLELLEGKELPGVAFLSEKK
binding [1]: binds
binding [2]: binds

Results are given in words; binding and its absence hold for the method and conditions named. Binding seen in cells or lysates may run through a third protein. A result given as binding can be weak or reduced; the word gives no strength. Where a sequence is shown, tags or fusion partners need not be part of it.
